Where “and” joins values, the source holds several entries; their conditions need not be identical. Equal entries are not always repeated. Structures can show the parent of a compound that is named as a salt. ± gives the standard deviation of the averaged measurements. Some of the results follow. Many values rest on one well or one pass, so single values are uncertain.
These compounds were tested on Neuro-2a (assay: neurite formation score, plate-normalized to DMSO control mean 5.04 (score (0-8 scale)); higher = more or longer neurites). Conditions: 10 µM.
CCN1CCN(Cc2ccc(Nc3ncc(F)c(-c4cc(F)c5nc(C)n(C(C)C)c5c4)n3)nc2)CC1 gave a neurite formation score of 2.88. In the case of C=CC(=O)Nc1cc(Nc2nccc(-c3cn(C)c4ccccc34)n2)c(OC)cc1N(C)CCN(C)C, the neurite formation score is reported as 0.0903. Work on Cn1cnc2c(F)c(Nc3ccc(Br)cc3Cl)c(C(=O)NOCCO)cc21 [AZD6244 (Selumetinib)] yielded a neurite formation score of 5.19. In the case of Fc1cc(-c2cccc3ncc(-c4cnn(C5CCNCC5)c4)nc23)cc(F)c1CN1CCOCC1, the neurite formation score is reported as 2.76. CCn1nnc2c(N3CCOCC3)nc(-c3ccc(NC(=O)Nc4ccc(C(=O)N5CCN(C)CC5)cc4)cc3)nc21 gave a neurite formation score of 3.09. In the case of COc1cc(Nc2ncc(F)c(Nc3ccc4c(n3)N(COP(=O)(O)O)C(=O)C(C)(C)O4)n2)cc(OC)c1OC [Fostamatinib (R788)], the neurite formation score is reported as 4.09. In the case of CC(C)n1nc(-c2cc3cc(O)ccc3[nH]2)c2c(N)ncnc21, the neurite formation score is reported as 2.42. Compound O=[N+]([O-])c1ccc(Nc2nc(N3CCOCC3)nc(N3CCOCC3)n2)cc1 has a neurite formation score of 3.86. Work on Cc1ncc(-c2ccnc(Nc3ccc(S(C)(=O)=O)cc3)n2)n1C(C)C yielded a neurite formation score of 2.85. Work on C#Cc1cccc(Nc2ncnc3cc(OCCOC)c(OCCOC)cc23)c1 [Erlotinib Hydrochloride] yielded a neurite formation score of 4.85. Work on NC(=O)c1ccc2nc(-c3ccc(Oc4ccc(Cl)cc4)cc3)[nH]c2c1 yielded a neurite formation score of 5.09. Cc1[nH]c(/C=C2\C(=O)Nc3ccc(S(=O)(=O)Cc4c(Cl)cccc4Cl)cc32)c(C)c1C(=O)N1CCC[C@@H]1CN1CCCC1 showed a neurite formation score of 1.54. For Cn1c(=O)c(F)c(Nc2ccc(I)cc2F)c2c(=O)n(C[C@@H](O)CO)cnc21, the neurite formation score was 5.19. O=C1NCCSc2c1sc1ccc(O)cc21 was tested, and the neurite formation score was 6.08. For CN(C)c1ccc(-c2nc3ncc(Cl)c(N4CCN(CC(=O)Nc5nccs5)CC4)c3[nH]2)cc1, the neurite formation score was 4.09. In the case of O=C(Nc1cccc(Nc2ncc(Br)c(NCCc3cnc[nH]3)n2)c1)N1CCCC1, the neurite formation score is reported as 1.88. With O=C1C(c2c(O)[nH]c3ccccc23)=Nc2ccccc21 [Indirubin] the neurite formation score was 5.52. With CNC(=O)c1cc(Oc2ccc3nc(N[C@@H]4CCCC[C@H]4O)sc3c2)ccn1 the neurite formation score was 3.86. For COc1nccc(-c2c(-c3ccc(F)cc3)ncn2C2CCC(O)CC2)n1 (centres undefined), the neurite formation score was 4.74. Compound CC(C)Oc1ccc(-c2cnc3c(-c4ccnc5ccccc45)cnn3c2)cc1 has a neurite formation score of 4.52. CCS(=O)(=O)c1cccc(-c2cc(C(=O)NC3CCN(C)CC3)c(C)c3[nH]c4ncc(C)cc4c23)c1 was tested, and the neurite formation score was 0.41. With c1ccc2c(-c3cnn4cc(-c5ccc(N6CCNCC6)cc5)cnc34)ccnc2c1 the neurite formation score was 1.76 and 3.76. With N#Cc1ccc2[nH]c(O)c(-c3ccc(CN4CCOCC4)cn3)c2c1 the neurite formation score was 4.86. Cc1cc(N2CCOCC2)cc2[nH]c(-c3c(NC[C@@H](O)c4cccc(Cl)c4)cc[nH]c3=O)nc12 showed a neurite formation score of 0.543. In the case of O=C(Nc1nc2cccc(-c3ccc(CN4CCS(=O)(=O)CC4)cc3)n2n1)C1CC1, the neurite formation score is reported as 4.59 ± 1.6. Work on OCCn1cc(-c2cnc3nnn(Cc4ccc5ncccc5c4)c3n2)cn1 yielded a neurite formation score of 4.74. c1cn2cc(-c3ccc4cn[nH]c4c3)nc(Nc3ccc(N4CCOCC4)cc3)c2n1 gave a neurite formation score of 4.86. With COc1c(OCCCN2CCOCC2)ccc2c3n(c(=NC(=O)c4cnc(N)nc4)nc12)CCN3 [BAY 80-6946 (Copanlisib)] the neurite formation score was 4.09. C=CC(=O)Nc1ccc(CN2C(=O)N(c3cc(OC)cc(OC)c3)Cc3cnc(Nc4ccc(N5CCN(C)CC5)cc4)nc32)cc1 gave a neurite formation score of 1.09. In the case of O=C(NOCC1CC1)c1ccc(F)c(F)c1Nc1ccc(I)cc1Cl, the neurite formation score is reported as 3.54. With CNC(=O)c1cc(COc2nnc(Nc3ccc(Cl)cc3)c3ccoc23)ccn1 [Telatinib (BAY 57-9352)] the neurite formation score was 4.76. Compound CC(=O)Nc1cccc(-n2c(=O)n(C3CC3)c(=O)c3c(Nc4ccc(I)cc4F)n(C)c(=O)c(C)c32)c1 [Trametinib DMSO solvate] has a neurite formation score of 2.41. CN1CCC(Nc2nc(Nc3ccc(Oc4ccccc4)cc3)c3c(=O)[nH]cc(Br)c3n2)CC1 gave a neurite formation score of 1.09. For COc1cc(N2CCC(N3CCN(C)CC3)CC2)ccc1Nc1ncc(Cl)c(Nc2ccccc2S(=O)(=O)C(C)C)n1, the neurite formation score was 0.519. For CN(C)C/C=C/C(=O)Nc1cc2c(Nc3ccc(F)c(Cl)c3)ncnc2cc1O[C@H]1CCOC1 [Afatinib (BIBW2992)], the neurite formation score was 4.52. CC(C)(C#N)c1ccc(N2C(=O)OCc3cnc4ccc(-c5cnc6ccccc6c5)cc4c32)cc1 showed a neurite formation score of 5.09. CCS(=O)(=O)N1CC(CC#N)(n2cc(-c3ncnc4[nH]ccc34)cn2)C1 showed a neurite formation score of 5.08. With C[C@@H]1CCN(C(=O)CC#N)C[C@@H]1N(C)c1ncnc2[nH]ccc12 the neurite formation score was 4.41 and 4.08. Cc1nc(NC(=O)N2CCC[C@H]2C(N)=O)sc1-c1ccnc(C(C)(C)C(F)(F)F)c1 gave a neurite formation score of 4.52.

— the supplement of paper PMC8047044
